# Values of other authors in patent publication US20100016244A1, “D-GLUCOPYRANOSE 1-[3,5-BIS (1,1-DIMETHYLETHY)-4-HYDROXYBENZOATE] AND ITS DERIVATIVES, PREPARATION AND USE THEREOF” (priority 2006, published 2010).
# At least one compound was matched to its structure with a doubt left.
# Tested on: herpes
# Conditions: humans; topical medicine applied from the onset; double-blind placebo; cited from earlier work
structure (smiles),measurement,value
"Cc1cc(C(C)(C)C)c(O)c(C(C)(C)C)c1 [BHT, butylhydroxytoluene]",clinical effect on herpes,disappearance or abortion of the herpes
